The values that follow come from the supplement of paper PMC6411743.

By UniProt entry, the sequences of proteins in these tests, tags left out. Where a name states a change or a piece, a line headed by the entry shows the natural chain unless it says otherwise.
UniProt Q9UK45: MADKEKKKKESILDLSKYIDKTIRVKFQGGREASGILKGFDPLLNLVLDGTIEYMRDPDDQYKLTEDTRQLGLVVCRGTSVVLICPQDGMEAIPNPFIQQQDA
UniProt Q9Y385: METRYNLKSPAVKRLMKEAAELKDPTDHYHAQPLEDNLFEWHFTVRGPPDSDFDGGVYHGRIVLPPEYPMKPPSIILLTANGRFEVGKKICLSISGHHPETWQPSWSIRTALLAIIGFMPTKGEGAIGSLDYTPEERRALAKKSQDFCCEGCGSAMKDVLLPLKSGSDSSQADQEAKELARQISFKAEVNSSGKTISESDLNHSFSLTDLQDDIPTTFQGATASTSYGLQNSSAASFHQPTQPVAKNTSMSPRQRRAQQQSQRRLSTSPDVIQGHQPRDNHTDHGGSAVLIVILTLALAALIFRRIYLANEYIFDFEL
UniProt Q9UIA9: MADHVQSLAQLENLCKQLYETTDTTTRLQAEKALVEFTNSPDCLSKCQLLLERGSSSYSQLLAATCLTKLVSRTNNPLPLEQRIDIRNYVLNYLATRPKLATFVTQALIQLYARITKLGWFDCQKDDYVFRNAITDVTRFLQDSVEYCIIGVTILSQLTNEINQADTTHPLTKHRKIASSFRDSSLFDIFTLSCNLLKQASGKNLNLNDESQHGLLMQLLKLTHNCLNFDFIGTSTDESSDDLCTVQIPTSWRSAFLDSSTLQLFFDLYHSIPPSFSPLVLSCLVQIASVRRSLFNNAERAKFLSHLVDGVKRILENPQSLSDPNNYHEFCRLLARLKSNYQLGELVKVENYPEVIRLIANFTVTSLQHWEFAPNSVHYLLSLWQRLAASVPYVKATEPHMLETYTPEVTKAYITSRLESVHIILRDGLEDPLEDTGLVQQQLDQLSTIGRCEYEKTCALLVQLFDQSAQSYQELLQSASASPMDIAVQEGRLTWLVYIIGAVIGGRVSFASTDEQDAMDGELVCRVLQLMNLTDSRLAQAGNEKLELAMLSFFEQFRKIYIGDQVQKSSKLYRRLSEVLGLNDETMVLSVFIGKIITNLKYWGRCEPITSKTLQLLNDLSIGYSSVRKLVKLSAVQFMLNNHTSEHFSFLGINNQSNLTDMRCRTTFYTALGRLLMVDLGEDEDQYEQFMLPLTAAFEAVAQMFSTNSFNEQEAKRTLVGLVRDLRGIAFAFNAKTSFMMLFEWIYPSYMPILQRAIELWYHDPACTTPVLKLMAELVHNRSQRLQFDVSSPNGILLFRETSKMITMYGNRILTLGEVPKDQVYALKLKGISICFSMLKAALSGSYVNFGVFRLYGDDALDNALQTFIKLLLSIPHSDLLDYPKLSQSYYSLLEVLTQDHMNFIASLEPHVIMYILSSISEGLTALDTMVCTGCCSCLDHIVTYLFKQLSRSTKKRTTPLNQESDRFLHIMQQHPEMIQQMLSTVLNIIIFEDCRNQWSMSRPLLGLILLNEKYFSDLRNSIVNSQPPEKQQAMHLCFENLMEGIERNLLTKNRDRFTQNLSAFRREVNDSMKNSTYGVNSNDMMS
UniProt Q9UNY4: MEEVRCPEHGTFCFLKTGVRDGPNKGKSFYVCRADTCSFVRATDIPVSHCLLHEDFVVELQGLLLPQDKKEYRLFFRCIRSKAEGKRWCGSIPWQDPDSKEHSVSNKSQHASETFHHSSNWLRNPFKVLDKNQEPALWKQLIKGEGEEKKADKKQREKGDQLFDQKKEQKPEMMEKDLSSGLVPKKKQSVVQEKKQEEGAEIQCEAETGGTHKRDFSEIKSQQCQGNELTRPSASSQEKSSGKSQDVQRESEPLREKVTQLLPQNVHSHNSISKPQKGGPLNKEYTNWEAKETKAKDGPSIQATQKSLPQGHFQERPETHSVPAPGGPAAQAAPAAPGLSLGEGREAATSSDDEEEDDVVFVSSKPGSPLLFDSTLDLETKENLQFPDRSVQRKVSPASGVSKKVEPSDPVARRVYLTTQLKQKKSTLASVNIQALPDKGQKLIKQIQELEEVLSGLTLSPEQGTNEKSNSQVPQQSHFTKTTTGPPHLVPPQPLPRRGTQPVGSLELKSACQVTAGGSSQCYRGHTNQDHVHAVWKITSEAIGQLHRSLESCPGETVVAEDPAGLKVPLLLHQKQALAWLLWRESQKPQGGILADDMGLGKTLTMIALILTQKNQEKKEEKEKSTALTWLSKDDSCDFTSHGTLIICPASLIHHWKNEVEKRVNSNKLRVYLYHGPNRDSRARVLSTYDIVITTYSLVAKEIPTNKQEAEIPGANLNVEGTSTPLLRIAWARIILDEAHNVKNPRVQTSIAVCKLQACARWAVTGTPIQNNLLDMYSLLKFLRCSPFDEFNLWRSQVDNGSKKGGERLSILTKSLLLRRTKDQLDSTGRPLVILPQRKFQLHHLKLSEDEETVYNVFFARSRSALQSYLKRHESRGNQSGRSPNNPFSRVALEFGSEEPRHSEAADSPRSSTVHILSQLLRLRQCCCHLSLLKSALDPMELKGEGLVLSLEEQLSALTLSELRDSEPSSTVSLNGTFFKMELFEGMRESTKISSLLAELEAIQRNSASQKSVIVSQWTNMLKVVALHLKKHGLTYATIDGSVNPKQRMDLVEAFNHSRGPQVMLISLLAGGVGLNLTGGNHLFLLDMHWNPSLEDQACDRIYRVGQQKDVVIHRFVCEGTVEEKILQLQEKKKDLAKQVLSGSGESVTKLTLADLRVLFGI
UniProt Q9ULR3: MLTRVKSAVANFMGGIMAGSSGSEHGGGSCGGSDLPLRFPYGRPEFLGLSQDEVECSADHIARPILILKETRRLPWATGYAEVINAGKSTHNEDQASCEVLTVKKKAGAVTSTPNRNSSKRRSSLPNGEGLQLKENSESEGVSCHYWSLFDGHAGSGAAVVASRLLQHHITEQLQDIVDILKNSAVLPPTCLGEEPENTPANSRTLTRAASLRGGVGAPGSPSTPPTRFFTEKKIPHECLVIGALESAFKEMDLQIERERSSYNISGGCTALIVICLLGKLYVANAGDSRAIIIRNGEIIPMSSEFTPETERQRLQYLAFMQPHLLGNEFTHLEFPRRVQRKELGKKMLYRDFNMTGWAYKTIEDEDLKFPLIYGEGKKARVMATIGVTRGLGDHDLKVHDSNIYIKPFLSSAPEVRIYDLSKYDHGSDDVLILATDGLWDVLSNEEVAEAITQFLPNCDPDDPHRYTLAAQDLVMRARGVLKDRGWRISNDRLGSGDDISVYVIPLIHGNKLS
UniProt Q9UJY5: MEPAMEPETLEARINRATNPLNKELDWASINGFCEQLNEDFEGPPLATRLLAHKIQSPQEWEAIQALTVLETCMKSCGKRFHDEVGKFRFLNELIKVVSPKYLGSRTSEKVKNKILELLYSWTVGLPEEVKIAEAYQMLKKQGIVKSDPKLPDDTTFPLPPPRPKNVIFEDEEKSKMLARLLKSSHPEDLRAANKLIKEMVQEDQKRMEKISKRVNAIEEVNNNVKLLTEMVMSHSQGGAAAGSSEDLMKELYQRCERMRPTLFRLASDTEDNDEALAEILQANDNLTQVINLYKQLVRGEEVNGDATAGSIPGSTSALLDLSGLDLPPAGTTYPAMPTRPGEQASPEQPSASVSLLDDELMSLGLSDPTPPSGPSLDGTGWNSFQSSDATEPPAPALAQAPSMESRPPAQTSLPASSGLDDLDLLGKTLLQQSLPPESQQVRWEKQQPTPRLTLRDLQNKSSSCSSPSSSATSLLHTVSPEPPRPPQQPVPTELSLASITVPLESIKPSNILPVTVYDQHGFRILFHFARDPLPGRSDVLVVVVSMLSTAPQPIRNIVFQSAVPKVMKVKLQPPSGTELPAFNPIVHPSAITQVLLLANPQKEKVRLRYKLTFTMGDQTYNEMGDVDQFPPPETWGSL
UniProt Q9Y259: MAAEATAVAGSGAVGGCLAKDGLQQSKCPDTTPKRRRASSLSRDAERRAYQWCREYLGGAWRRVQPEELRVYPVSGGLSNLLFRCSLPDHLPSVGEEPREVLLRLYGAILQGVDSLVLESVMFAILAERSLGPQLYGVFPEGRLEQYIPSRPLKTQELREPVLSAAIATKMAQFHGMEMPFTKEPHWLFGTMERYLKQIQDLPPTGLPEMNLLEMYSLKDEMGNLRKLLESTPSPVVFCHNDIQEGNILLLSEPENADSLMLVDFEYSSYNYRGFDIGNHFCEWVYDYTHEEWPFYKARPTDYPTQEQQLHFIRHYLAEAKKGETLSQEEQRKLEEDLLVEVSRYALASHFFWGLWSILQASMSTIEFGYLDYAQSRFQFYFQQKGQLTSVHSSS
UniProt Q9UJA5: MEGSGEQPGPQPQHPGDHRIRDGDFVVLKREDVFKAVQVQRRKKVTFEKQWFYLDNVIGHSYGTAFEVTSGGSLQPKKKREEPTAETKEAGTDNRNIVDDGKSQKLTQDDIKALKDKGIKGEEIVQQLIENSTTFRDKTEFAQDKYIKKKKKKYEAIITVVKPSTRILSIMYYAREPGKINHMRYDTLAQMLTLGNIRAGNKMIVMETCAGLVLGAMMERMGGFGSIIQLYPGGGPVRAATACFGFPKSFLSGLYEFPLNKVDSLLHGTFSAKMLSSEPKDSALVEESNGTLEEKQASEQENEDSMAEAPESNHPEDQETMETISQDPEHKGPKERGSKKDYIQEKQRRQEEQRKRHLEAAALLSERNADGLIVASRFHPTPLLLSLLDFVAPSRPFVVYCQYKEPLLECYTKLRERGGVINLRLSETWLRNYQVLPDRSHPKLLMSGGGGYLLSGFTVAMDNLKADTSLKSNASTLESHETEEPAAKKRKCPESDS
UniProt Q9ULE6: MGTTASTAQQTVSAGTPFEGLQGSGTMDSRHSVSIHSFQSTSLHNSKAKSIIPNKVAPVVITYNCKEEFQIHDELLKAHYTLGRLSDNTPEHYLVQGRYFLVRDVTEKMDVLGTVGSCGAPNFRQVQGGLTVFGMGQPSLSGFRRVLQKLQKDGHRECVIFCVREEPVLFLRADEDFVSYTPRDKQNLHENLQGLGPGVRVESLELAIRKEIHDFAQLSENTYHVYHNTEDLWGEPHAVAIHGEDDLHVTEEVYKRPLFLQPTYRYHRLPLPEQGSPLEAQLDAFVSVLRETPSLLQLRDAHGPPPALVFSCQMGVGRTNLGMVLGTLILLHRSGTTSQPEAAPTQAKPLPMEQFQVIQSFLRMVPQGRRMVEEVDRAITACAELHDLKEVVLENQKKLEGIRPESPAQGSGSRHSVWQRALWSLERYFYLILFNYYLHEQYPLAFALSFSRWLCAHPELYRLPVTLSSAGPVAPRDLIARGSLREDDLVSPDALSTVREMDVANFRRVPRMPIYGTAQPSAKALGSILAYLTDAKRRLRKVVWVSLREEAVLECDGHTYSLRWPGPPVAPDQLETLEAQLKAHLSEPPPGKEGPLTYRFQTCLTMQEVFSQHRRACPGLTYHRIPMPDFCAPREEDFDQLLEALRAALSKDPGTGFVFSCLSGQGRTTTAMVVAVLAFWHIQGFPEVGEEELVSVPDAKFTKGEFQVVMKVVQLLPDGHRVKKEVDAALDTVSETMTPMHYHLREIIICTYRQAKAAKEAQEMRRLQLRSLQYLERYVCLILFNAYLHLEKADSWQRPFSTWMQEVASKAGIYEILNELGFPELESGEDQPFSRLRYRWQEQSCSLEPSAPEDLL
UniProt Q9Y2U5: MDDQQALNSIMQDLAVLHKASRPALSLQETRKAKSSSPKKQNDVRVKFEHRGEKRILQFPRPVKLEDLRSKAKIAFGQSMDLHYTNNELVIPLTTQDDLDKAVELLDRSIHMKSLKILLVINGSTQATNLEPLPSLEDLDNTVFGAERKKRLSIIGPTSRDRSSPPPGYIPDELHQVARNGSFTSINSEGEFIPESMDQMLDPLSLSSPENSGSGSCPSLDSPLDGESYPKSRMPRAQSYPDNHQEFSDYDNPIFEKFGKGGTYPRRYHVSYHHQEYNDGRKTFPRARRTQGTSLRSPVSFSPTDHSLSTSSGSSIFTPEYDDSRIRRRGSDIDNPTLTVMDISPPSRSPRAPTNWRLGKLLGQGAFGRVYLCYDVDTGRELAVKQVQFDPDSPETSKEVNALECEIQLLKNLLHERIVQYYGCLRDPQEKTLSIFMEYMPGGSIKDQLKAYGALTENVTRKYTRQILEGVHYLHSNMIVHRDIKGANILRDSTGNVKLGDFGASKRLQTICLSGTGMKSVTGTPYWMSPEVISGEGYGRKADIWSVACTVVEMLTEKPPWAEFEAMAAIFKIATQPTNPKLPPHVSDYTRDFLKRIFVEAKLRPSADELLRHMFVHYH
UniProt Q9UNK0: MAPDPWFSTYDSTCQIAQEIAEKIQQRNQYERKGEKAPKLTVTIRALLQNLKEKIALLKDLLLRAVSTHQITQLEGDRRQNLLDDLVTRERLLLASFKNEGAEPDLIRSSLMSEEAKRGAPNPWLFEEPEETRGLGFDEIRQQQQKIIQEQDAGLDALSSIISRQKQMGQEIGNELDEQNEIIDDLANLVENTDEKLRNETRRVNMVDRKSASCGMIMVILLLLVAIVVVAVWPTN

Compound in the assay: Nc1ncnc2c1ncn2[C@@H]1O[C@H](COP(=O)(O)OP(=O)(O)NP(=O)(O)O)[C@@H](O)[C@H]1O [adenylyl imidodiphosphate]
Description: NP40-soluble protein abundance relative to vehicle (solubility fold change) (ratio); higher = more soluble protein in presence of AMP-PNP. In a few lines:
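Values are fold changes against the detergent-processed vehicle, based on vsn-normalised intensities. Jurkat crude lysate was treated at eight concentrations from 0.1 to 10 mM (10 min at room temperature, then 3 min at 37 °C), solubilised with 0.8% NP40 and benzonase, ultracentrifuged and analysed by TMT-labelled LC-MS/MS over three independent experiments.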

± gives the standard deviation of the averaged measurements. The list shows a part of the results, in another mix than the full data.

Turning to LSM7 (UniProt Q9UK45), the NP40-soluble protein abundance is 1.03 ± 0.041 (concentration: 1mM); 1.11 ± 0.088 (concentration: 2mM); 1.02 ± 0.042 (concentration: 4mM); 1.1 ± 0.072 (concentration: 6mM); 1.11 ± 0.059 (concentration: 8mM); 1.11 ± 0.036 (concentration: 10mM).

As to UBE2J1 (UniProt Q9Y385), the NP40-soluble protein abundance is, setting by setting: (concentration: 1mM) 0.97 ± 0.012; (concentration: 2mM) 0.974 ± 0.014; (concentration: 4mM) 0.9584 ± 0.0065; (concentration: 6mM) 0.915 ± 0.055; (concentration: 8mM) 0.882 ± 0.051; (concentration: 10mM) 0.908 ± 0.028.

Turning to XPO7 (UniProt Q9UIA9), the NP40-soluble protein abundance is, setting by setting: (concentration: 1mM) 0.973 ± 0.036; (concentration: 2mM) 0.932 ± 0.035; (concentration: 4mM) 0.96 ± 0.019; (concentration: 6mM) 0.958 ± 0.037; (concentration: 8mM) 0.966 ± 0.015; (concentration: 10mM) 0.939 ± 0.03.

For the target UniProt Q9ULX6 and related entries, the NP40-soluble protein abundance by setting is: (concentration: 1mM) 0.928 ± 0.06; (concentration: 2mM) 0.945 ± 0.057; (concentration: 4mM) 0.912 ± 0.032; (concentration: 6mM) 0.939 ± 0.087; (concentration: 8mM) 0.893 ± 0.082; (concentration: 10mM) 0.897 ± 0.054.

For the target UniProt Q9Y2S2 and related entries, the NP40-soluble protein abundance came to 0.983 ± 0.079 (concentration: 1mM); 0.911 ± 0.074 (concentration: 2mM); 0.984 ± 0.046 (concentration: 4mM); 0.971 ± 0.088 (concentration: 6mM); 1.01 ± 0.064 (concentration: 8mM); 0.97 ± 0.076 (concentration: 10mM).

Take TTF2 (UniProt Q9UNY4): the NP40-soluble protein abundance is, setting by setting: (concentration: 1mM) 1.07 ± 0.03; (concentration: 2mM) 1.06 ± 0.025; (concentration: 4mM) 1.06 ± 0.039; (concentration: 6mM) 1.019 ± 0.0071; (concentration: 8mM) 1.01 ± 0.026; (concentration: 10mM) 1.03 ± 0.027.

For PPM1H (UniProt Q9ULR3), the NP40-soluble protein abundance was 1 ± 0.013 (concentration: 1mM); 0.96 ± 0.041 (concentration: 2mM); 0.967 ± 0.033 (concentration: 4mM); 0.964 ± 0.016 (concentration: 6mM); 0.954 ± 0.014 (concentration: 8mM); 0.956 ± 0.02 (concentration: 10mM).

As for UniProt Q9UJY5 and related entries, the NP40-soluble protein abundance is, setting by setting: (concentration: 1mM) 1 ± 0.034; (concentration: 2mM) 1.02 ± 0.035; (concentration: 4mM) 1.01 ± 0.043; (concentration: 6mM) 0.98 ± 0.014; (concentration: 8mM) 0.97 ± 0.025; (concentration: 10mM) 0.952 ± 0.045.

Regarding UniProt Q9Y259 and related entries, the NP40-soluble protein abundance (concentration: 1mM) amounted to 1.01 ± 0.011; the NP40-soluble protein abundance (concentration: 2mM) was determined as 0.989 ± 0.021; the NP40-soluble protein abundance (concentration: 4mM) was found to be 0.997 ± 0.03; the NP40-soluble protein abundance (concentration: 6mM) came out at 0.98 ± 0.024; the NP40-soluble protein abundance (concentration: 8mM) came to 0.9913 ± 0.0044; the NP40-soluble protein abundance (concentration: 10mM) turned out to be 0.976 ± 0.017.

Consider TRMT6 (UniProt Q9UJA5), for which the NP40-soluble protein abundance (concentration: 1mM) is 1.013 ± 0.0062; the NP40-soluble protein abundance (concentration: 2mM) was 1.02 ± 0.047; the NP40-soluble protein abundance (concentration: 4mM) is 1.02 ± 0.023; the NP40-soluble protein abundance (concentration: 6mM) is 1.03 ± 0.012; the NP40-soluble protein abundance (concentration: 8mM) was 1.03 ± 0.017; the NP40-soluble protein abundance (concentration: 10mM) is 1.047 ± 0.0057.

Regarding UniProt Q9ULE6, the NP40-soluble protein abundance came out at 0.981 ± 0.025 (concentration: 1mM); 0.96 ± 0.013 (concentration: 2mM); 1.01 ± 0.02 (concentration: 4mM); 0.959 ± 0.027 (concentration: 6mM); 0.957 ± 0.016 (concentration: 8mM); 0.944 ± 0.025 (concentration: 10mM).

For GPATCH8 (UniProt Q9UKJ3), the NP40-soluble protein abundance runs as follows: (concentration: 1mM) 1.07 ± 0.051; (concentration: 2mM) 1.1 ± 0.03; (concentration: 4mM) 1.07 ± 0.05; (concentration: 6mM) 1.03 ± 0.061; (concentration: 8mM) 1.04 ± 0.038; (concentration: 10mM) 1.06 ± 0.057.

As to MRPS2 (UniProt Q9Y399), the NP40-soluble protein abundance by setting is: (concentration: 1mM) 0.973 ± 0.061; (concentration: 2mM) 0.945 ± 0.071; (concentration: 4mM) 0.947 ± 0.1; (concentration: 6mM) 1.01 ± 0.089; (concentration: 8mM) 1 ± 0.072; (concentration: 10mM) 0.987 ± 0.14.

Turning to UniProt Q9Y2U5, the NP40-soluble protein abundance (concentration: 1mM) was 0.982 ± 0.034; the NP40-soluble protein abundance (concentration: 2mM) is 0.982 ± 0.026; the NP40-soluble protein abundance (concentration: 4mM) worked out at 0.986 ± 0.051; the NP40-soluble protein abundance (concentration: 6mM) was 1.016 ± 0.0081; the NP40-soluble protein abundance (concentration: 8mM) turned out to be 0.973 ± 0.046; the NP40-soluble protein abundance (concentration: 10mM) was determined as 0.987 ± 0.035.

For STX8 (UniProt Q9UNK0), the NP40-soluble protein abundance (concentration: 1mM) was 0.999 ± 0.011; the NP40-soluble protein abundance (concentration: 2mM) is 1 ± 0.039; the NP40-soluble protein abundance (concentration: 4mM) came to 1.01 ± 0.035; the NP40-soluble protein abundance (concentration: 6mM) turned out to be 0.985 ± 0.044; the NP40-soluble protein abundance (concentration: 8mM) was 0.969 ± 0.021; the NP40-soluble protein abundance (concentration: 10mM) amounted to 0.9382 ± 0.0082.
